The results in this text go back to paper PMC12259254.

Sequences of proteins named here, by UniProt entry; tags and fusion partners are left off. A change or cut given only in a name is not applied to a line headed by its entry.
UniProt O43791: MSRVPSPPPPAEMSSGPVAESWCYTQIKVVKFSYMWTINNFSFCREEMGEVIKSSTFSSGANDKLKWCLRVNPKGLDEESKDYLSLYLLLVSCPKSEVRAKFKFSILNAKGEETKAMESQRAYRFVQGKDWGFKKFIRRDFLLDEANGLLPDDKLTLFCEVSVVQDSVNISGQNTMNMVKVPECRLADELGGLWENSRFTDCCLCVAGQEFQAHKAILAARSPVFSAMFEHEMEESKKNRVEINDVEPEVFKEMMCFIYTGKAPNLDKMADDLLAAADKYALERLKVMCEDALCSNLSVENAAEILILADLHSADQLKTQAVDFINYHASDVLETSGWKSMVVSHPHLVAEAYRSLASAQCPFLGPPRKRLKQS
UniProt Q9H7D7: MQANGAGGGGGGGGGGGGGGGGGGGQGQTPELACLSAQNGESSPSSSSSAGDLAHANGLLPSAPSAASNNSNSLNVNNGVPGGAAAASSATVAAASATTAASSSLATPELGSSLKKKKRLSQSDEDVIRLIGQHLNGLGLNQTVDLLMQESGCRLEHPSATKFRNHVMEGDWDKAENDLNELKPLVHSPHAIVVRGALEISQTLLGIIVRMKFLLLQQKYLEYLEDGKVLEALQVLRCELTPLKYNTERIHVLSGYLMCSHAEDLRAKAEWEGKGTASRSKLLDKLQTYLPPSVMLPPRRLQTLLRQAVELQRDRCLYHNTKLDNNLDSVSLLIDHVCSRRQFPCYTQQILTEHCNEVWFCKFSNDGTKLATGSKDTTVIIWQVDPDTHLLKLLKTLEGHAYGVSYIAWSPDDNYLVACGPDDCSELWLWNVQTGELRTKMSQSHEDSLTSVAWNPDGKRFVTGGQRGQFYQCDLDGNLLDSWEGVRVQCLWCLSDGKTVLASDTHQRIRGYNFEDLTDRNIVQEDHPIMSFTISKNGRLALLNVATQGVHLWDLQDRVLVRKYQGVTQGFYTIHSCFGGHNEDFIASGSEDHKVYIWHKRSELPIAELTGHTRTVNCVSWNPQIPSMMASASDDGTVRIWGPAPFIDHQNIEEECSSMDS

Test [1] deals with T1, Flag-LMNB2 WT (lamin B2) (UniProt Q03252).
T1 sequence: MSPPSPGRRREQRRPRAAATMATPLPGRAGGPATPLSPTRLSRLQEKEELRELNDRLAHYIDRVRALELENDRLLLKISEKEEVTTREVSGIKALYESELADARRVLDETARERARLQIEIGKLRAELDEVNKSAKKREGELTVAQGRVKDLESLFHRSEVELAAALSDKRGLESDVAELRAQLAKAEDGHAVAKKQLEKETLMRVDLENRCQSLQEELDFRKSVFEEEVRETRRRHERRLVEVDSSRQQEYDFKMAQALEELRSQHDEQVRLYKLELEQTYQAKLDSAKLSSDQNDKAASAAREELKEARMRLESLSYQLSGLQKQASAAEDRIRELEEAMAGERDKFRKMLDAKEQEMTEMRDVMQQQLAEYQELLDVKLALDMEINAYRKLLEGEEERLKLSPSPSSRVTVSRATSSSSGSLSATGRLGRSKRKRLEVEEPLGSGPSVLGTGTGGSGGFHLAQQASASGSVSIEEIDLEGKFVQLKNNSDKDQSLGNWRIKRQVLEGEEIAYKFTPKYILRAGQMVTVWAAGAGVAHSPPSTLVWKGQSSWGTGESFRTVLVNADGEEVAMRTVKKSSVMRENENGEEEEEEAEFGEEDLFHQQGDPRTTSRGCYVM
The experiment in a line: co-IP; 293T cells transiently transfected with both tagged partners; IP buffer 50 mM Tris-HCl pH 7.4, 150 mM NaCl, 0.1% NP-40; HA/Flag/Myc agarose beads overnight at 4°C; also done in control and SPOP knockout cells.

The target of test [2] is Flag-LMNB2 ΔLTD (UniProt Q03252). Described as above.

Results are given in words; binding and its absence hold for the method and conditions named. Binding seen in cells or lysates may run through a third protein. For part of these data: A result given as binding can be weak or reduced; the word gives no strength. For part of these data: Tags and fused reporters may be left off the sequences shown.

Turning to Myc-SPOP ΔMATH (from UniProt O43791), the binding result in test [1] was “no binding”.
With Myc-SPOP ΔBTB (from UniProt O43791), the binding result in test [1] is “binds”.
As to “exogenous WDR26 (WD repeat domain 26), pCMV-WDR26-3×HA-Neo (from UniProt Q9H7D7 1-661)”, the binding entry in test [2] was “no binding”.
